Reference: paper PMC11379071
Results are given in words; binding and its absence hold for the method and conditions named. In cells and extracts the contact can be indirect. Some entries that bind do so weakly or less than the wild type. Each block holds one molecule with its values, some of them ahead of it.

By UniProt entry, the sequences of proteins in these tests, tags left out.
UniProt P18848: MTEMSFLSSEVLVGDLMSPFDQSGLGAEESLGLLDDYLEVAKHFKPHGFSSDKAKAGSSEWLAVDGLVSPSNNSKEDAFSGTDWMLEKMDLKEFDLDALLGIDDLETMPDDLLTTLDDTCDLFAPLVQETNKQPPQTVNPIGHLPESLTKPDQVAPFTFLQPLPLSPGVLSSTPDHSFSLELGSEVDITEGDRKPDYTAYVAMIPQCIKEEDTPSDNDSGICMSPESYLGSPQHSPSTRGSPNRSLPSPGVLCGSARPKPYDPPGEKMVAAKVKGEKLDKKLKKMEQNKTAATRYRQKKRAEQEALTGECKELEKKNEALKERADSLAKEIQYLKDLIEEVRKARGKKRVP
UniProt P46937: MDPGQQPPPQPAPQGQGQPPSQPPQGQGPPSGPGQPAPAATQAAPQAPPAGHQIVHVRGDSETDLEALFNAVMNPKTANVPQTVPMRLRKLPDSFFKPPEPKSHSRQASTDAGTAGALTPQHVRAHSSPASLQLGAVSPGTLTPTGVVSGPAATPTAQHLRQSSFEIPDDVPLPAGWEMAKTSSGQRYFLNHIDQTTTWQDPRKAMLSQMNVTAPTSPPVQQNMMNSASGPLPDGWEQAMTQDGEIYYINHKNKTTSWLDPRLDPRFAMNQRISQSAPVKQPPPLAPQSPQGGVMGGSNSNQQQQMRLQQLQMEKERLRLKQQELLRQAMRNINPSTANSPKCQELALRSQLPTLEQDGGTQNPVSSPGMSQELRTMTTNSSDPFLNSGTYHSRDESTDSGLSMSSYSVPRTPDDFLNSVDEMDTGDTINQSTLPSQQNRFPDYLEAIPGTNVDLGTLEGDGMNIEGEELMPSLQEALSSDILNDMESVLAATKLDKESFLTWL

How the values were obtained:
[1] = target: activating transcription factor 4 (ATF4) (human (endogenous in HepG2 and HUH6)) (UniProt P18848); test: co-IP; reciprocal co-IP of endogenous YAP1 and ATF4 with anti-YAP1 and anti-ATF4 antibodies, followed by WB, in HepG2 and HUH6 cells
[2] = target: T1, YTHDF2 (human (endogenous in HepG2 and HUH6)), Q9Y5A9; test: co-IP; co-IP of YTHDF2 (anti-YTHDF2 antibody) with deadenylation enzymes in HepG2 and HUH6 cells, untreated or treated with RNase inhibitor; conditions: remark: other sources report otherwise
T1 chain: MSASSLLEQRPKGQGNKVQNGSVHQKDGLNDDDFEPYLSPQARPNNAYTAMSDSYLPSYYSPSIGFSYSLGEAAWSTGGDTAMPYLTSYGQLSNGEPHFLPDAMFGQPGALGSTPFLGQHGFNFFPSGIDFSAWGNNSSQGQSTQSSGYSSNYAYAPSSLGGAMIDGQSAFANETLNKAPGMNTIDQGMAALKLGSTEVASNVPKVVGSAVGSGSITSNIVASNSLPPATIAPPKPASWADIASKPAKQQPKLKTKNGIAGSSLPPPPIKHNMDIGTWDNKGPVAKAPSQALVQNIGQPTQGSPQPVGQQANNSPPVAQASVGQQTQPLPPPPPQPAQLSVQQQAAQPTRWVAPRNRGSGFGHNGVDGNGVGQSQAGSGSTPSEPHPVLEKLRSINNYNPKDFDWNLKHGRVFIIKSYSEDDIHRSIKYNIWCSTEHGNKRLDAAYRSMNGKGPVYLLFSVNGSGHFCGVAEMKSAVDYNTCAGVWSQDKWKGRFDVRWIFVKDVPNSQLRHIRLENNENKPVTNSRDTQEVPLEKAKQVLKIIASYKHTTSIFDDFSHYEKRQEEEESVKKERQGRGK

[3] = target: T2, YTHDF2 (human (endogenous in HepG2 and HUH6)) (UniProt Q9Y5A9); test: as above
T2 sequence: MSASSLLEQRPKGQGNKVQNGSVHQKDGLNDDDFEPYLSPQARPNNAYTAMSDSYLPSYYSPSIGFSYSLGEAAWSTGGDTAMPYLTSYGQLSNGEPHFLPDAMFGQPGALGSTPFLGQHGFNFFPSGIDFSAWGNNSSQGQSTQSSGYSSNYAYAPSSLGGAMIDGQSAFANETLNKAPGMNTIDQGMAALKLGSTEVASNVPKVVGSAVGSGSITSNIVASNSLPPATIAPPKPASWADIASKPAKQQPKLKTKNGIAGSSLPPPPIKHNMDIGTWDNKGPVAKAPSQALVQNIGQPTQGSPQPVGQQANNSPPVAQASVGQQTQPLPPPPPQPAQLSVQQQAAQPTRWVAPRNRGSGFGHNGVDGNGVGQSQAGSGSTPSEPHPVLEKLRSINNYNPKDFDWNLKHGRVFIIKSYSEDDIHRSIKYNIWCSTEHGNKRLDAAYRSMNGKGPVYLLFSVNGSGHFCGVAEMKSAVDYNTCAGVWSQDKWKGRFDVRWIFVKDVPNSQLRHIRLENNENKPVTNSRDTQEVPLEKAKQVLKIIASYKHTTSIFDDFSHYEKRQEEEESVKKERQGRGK

binding [1]: binds
Molecule: Yes-associated protein (YAP1) (from UniProt P46937 1-504)

binding [2]: no binding
B1: PAN2, Q504Q3 1-1202 (protein)
chain: MNFEGLDPGLAEYAPAMHSALDPVLDAHLNPSLLQNVELDPEGVALEALPVQESVHIMEGVYSELHSVVAEVGVPVSVSHFDLHEEMLWVGSHGGHATSFFGPALERYSSFQVNGSDDIRQIQSLENGILFLTKNNLKYMARGGLIIFDYLLDENEDMHSLLLTDSSTLLVGGLQNHIIEIDLNTVQETQKYAVETPGVTIMRQTNRFFFCGHTSGKVSLRDLRTFKVEHEFDAFSGSLSDFDVHGNLLAACGFSSRLTGLACDRFLKVYDLRMMRAITPLQVHVDPAFLRFIPTYTSRLAIISQSGQCQFCEPTGLANPADIFHVNPVGPLLMTFDVSASKQALAFGDSEGCVHLWTDSPEPSFNPYSRETEFALPCLVDSLPPLDWSQDLLPLSLIPVPLTTDTLLSDWPAANSAPAPRRAPPVDAEILRTMKKVGFIGYAPNPRTRLRNQIPYRLKESDSEFDSFSQVTESPVGREEEPHLHMVSKKYRKVTIKYSKLGLEDFDFKHYNKTLFAGLEPHIPNAYCNCMIQVLYFLEPVRCLIQNHLCQKEFCLACELGFLFHMLDLSRGDPCQGNNFLRAFRTIPEASALGLILADSDEASGKGNLARLIQRWNRFILTQLHQDMQELEIPQAYRGAGGSSFCSSGDSVIGQLFSCEMENCSLCRCGSETVRASSTLLFTLSYPDGSKSDKTGKNYDFAQVLKRSICLDQNTQAWCDTCEKYQPTIQTRNIRHLPDILVINCEVNSSKEADFWRMQAEVAFKMAVKKHGGEISKNKEFALADWKELGSPEGVLVCPSIEELKNVWLPFSIRMKMTKNKGLDVCNWTDGDEMQWGPARAEEEHGVYVYDLMATVVHILDSRTGGSLVAHIKVGETYHQRKEGVTHQQWYLFNDFLIEPIDKHEAVQFDMNWKVPAILYYVKRNLNSRYNLNIKNPIEASVLLAEASLARKQRKTHTTFIPLMLNEMPQIGDLVGLDAEFVTLNEEEAELRSDGTKSTIKPSQMSVARITCVRGQGPNEGIPFIDDYISTQEQVVDYLTQYSGIKPGDLDAKISSKHLTTLKSTYLKLRFLIDIGVKFVGHGLQKDFRVINLMVPKDQVLDTVYLFHMPRKRMISLRFLAWYFLDLKIQGETHDSIEDARTALQLYRKYLELSKNGTEPESFHKVLKGLYEKGRKMDWKVPEPEGQTSPKNAAVFSSVLAL

binding [3]: no binding
B2: PARN (protein, UniProt O95453 1-639)
chain: MEIIRSNFKSNLHKVYQAIEEADFFAIDGEFSGISDGPSVSALTNGFDTPEERYQKLKKHSMDFLLFQFGLCTFKYDYTDSKYITKSFNFYVFPKPFNRSSPDVKFVCQSSSIDFLASQGFDFNKVFRNGIPYLNQEEERQLREQYDEKRSQANGAGALSYVSPNTSKCPVTIPEDQKKFIDQVVEKIEDLLQSEENKNLDLEPCTGFQRKLIYQTLSWKYPKGIHVETLETEKKERYIVISKVDEEERKRREQQKHAKEQEELNDAVGFSRVIHAIANSGKLVIGHNMLLDVMHTVHQFYCPLPADLSEFKEMTTCVFPRLLDTKLMASTQPFKDIINNTSLAELEKRLKETPFNPPKVESAEGFPSYDTASEQLHEAGYDAYITGLCFISMANYLGSFLSPPKIHVSARSKLIEPFFNKLFLMRVMDIPYLNLEGPDLQPKRDHVLHVTFPKEWKTSDLYQLFSAFGNIQISWIDDTSAFVSLSQPEQVKIAVNTSKYAESYRIQTYAEYMGRKQEEKQIKRKWTEDSWKEADSKRLNPQCIPYTLQNHYYRNNSFTAPSTVGKRNLSPSQEEAGLEDGVSGEISDTELEQTDSCAEPLSEGRKKAKKLKRMKKELSPAGSISKNSPATLFEVPDTW
